Source: PubChem BioAssay AID1053133 (Broad Institute, 2014).

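Vaccinia-infected cells with a two-color viral stage reporter; Venus fluorescence read on a plate reader; the cell line is not named here; timing not stated here.
The test concentration is not given here.
Percent change in Venus reporter signal; lower (more negative) values mean stronger inhibition of that viral stage.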

Values are in %.
How 0% and 100% were set is not given here.
Common to all entries: measured here: Venus reporter, other viral stage.
Part of the compounds only, not a random draw; the main read-out is not listed here.

| compound | activity change (Venus) (%) |
|---|---|
| `COc1cccc(-c2ccc3c(c2)[C@@H]2[C@@H](CCN2S(=O)(=O)c2ccccc2C)[C@H](CO)N3C)c1` | -54.36 |
| `C[C@@H]1CN([C@@H](C)CO)C(=O)c2cc(NC(=O)Nc3ccc(F)cc3)ccc2O[C@@H]1CN(C)Cc1ccc2c(c1)OCO2` | -20.98 |
| `COc1ccc(-c2ccc(C3[C@@H]4CN(Cc5ccccn5)C[C@H]3N4)cc2)cc1` (stereo partly drawn) | -38.28 |
| `O=C(C[C@@H]1CC[C@H]2[C@@H](COC[C@H](O)CN2Cc2ccc(Oc3ccccc3)cc2)O1)Nc1nccs1` | -36.36 |
| `C[C@@H]1CCCCO[C@H](CN(C)Cc2ccc(C(F)(F)F)cc2)[C@H](C)CN([C@@H](C)CO)C(=O)c2cc(NC(=O)c3ccncc3)ccc2O1` | -57.43 |
| `Cc1ccc(S(=O)(=O)Nc2ccc3c(c2)C(=O)N([C@H](C)CO)C[C@@H](C)[C@H](CN(C)Cc2ccc(-c4ccccc4)cc2)O3)cc1` | -39.91 |
| `COc1ccccc1NC(=O)N1CCCCN2[C@H](CO)[C@H](c3ccc(C#CC4CCCC4)cc3)[C@H]2C1` | -76.59 |
| `C[C@@H]1CN([C@@H](C)CO)C(=O)Cc2cc(NC(=O)C3CCCCC3)ccc2O[C@H]1CN(C)Cc1ccc2c(c1)OCO2` | -24.38 |
| `COc1ccccc1NC(=O)N1CCCCN2[C@H](C1)[C@@H](c1ccc(C#CC3CC3)cc1)[C@@H]2CO` | -40.1 |
| `CO[C@@H]1CN(C)C(=O)c2ccc(NC(=O)c3ccc(-c4ccccc4)cc3)cc2OC[C@@H](C)NC[C@@H]1C` | -55.94 |
| `O=S(=O)(c1ccccc1)N1CC2(C1)[C@@H](c1ccccc1)[C@@H](CO)N2CC1CCCC1` | -20.94 |
| `C[C@H](CO)N1C[C@H](C)[C@@H](CN(C)CC2CCCCC2)Oc2ccc(NC(=O)NC3CCCCC3)cc2CC1=O` | -39.88 |
| `CO[C@H](CN(C)S(=O)(=O)c1cccc(Cl)c1)[C@@H](C)CN([C@H](C)CO)S(=O)(=O)c1ccc(Cl)cc1` | -21.41 |
| `Cc1ccc(-c2ccc(C3[C@H]4CNC[C@@H]3N4C(=O)Nc3ccc(F)cc3)cc2)cc1` (stereo partly drawn) | -36.04 |
| `C[C@H]1CN([C@@H](C)CO)S(=O)(=O)c2ccc(C#CC3CC3)cc2O[C@@H]1CN(C)Cc1ccccc1` | -49.3 |
| `C[C@@H]1CCCCO[C@@H](CN(C)Cc2ccc(C(F)(F)F)cc2)[C@H](C)CN([C@@H](C)CO)C(=O)c2cc(NS(=O)(=O)c3ccccc3)ccc2O1` | -67.91 |
| `O=C(C[C@H]1C[C@H]2c3cc(NS(=O)(=O)c4ccc(F)cc4)ccc3O[C@H]2[C@@H](CO)O1)NCc1ccc(Oc2ccccc2)cc1` | -36.42 |
| `C[C@@H]1CN([C@H](C)CO)S(=O)(=O)c2ccc(C#CC3CC3)cc2O[C@H]1CN(C)C(=O)c1cccc(F)c1` | -30.58 |
| `O=C(C[C@@H]1CC[C@@H]2[C@H](COC[C@@H](O)CN2Cc2cccc(-c3ccncc3)c2)O1)N1CCOCC1` | -37.62 |
| `C[C@H](CO)N1C[C@H](C)[C@H](CN(C)S(=O)(=O)c2ccccc2)Oc2ncc(C#Cc3ccccc3)cc2C1=O` | -29.7 |
| `Cc1ccc(-c2ccc([C@@H]3[C@@H](CO)N4C(=O)CN(C(=O)Nc5ccc(F)cc5)C[C@H]34)cc2)cc1` | -50.88 |
| `C[C@@H]1CN([C@@H](C)CO)C(=O)c2cc(C#Cc3cccc(F)c3)cnc2O[C@H]1CN(C)C(=O)c1ccccc1F` | -42.03 |
| `C[C@@H]1CCCCO[C@H](CN(C)Cc2ccccc2)[C@H](C)CN([C@H](C)CO)C(=O)c2cc(NS(=O)(=O)c3ccccc3)ccc2O1` | -47.91 |
| `COc1ccc(NC(=O)Nc2ccc3c(c2)CC(=O)N([C@H](C)CO)C[C@H](C)[C@H](CN(C)Cc2ccc(Oc4ccccc4)cc2)O3)cc1` | -40.39 |
| `CC(C)NC(=O)N1Cc2cc(C(=O)NC3Cc4ccccc4C3)nc(-c3cccc(-c4cccnc4)c3)c2[C@H]1CCO` | -41.69 |
| `O=S(=O)(c1ccccc1)N1CCCCN2[C@H](CO)[C@H](c3ccc(C#CC4CCCC4)cc3)[C@H]2C1` | -48.96 |
| `O=C(Nc1ccccc1F)N1CCCCN2[C@H](C1)[C@@H](c1ccc(C#Cc3cccnc3)cc1)[C@@H]2CO` | -34.62 |
| `O=C(C[C@H]1C[C@@H]2c3cc(NC(=O)c4ccc5c(c4)OCO5)ccc3O[C@@H]2[C@@H](CO)O1)NCc1ccc(Oc2ccccc2)cc1` | -36.68 |
| `C[C@H]1CN([C@@H](C)CO)C(=O)Cc2cc(NS(=O)(=O)c3ccc(F)cc3)ccc2O[C@@H]1CN(C)Cc1ccc(Oc2ccccc2)cc1` | -44.73 |
| `C[C@H]1CN([C@@H](C)CO)C(=O)c2c(c3ccccc3n2C)-c2ccccc2CO[C@@H]1CN(C)Cc1ccncc1` | -28.11 |
| `Cc1noc(C)c1S(=O)(=O)Nc1ccc2c(c1)C(=O)N([C@@H](C)CO)C[C@H](C)[C@@H](CN(C)CC1CCCCC1)OCCCC[C@H](C)O2` | -38.28 |
| `CC(C)CC#Cc1ccc2c(c1)O[C@@H](CN(C)C(=O)C1CCCCC1)[C@H](C)CN([C@@H](C)CO)S2(=O)=O` | -23.54 |
| `C[C@H]1CCCCO[C@@H](CN(C)C(=O)Nc2cccc3ccccc23)[C@@H](C)CN([C@@H](C)CO)C(=O)c2cc(NC(=O)c3ccncc3)ccc2O1` | -89.55 |
| `O=C(C[C@H]1C=C[C@@H](NS(=O)(=O)c2ccc(F)cc2)[C@@H](CO)O1)NCc1ccc(Cl)c(Cl)c1` | -37.42 |
| `COc1ccc(C#Cc2cnc3c(c2)C(=O)N([C@@H](C)CO)C[C@@H](C)[C@H](CN(C)CC2CCOCC2)O3)cc1` | -15.46 |
| `O=S(=O)(c1ccccc1)N1C[C@@H]2N[C@H](C1)C2c1ccc(-c2ccc(F)cc2)cc1` (stereo partly drawn) | -73.27 |
| `COc1ccc(C#Cc2ccc([C@@H]3[C@H](CO)N4CCCCN(C(=O)Cc5ccncc5)C[C@@H]34)cc2)cc1` | -22.04 |
| `OC[C@@H]1[C@H](c2ccc(-c3ccc(F)cc3)cc2)[C@@H](CNC2CCCC2)N1CCC(F)(F)F` | -15.23 |